For assay [1], the target named is GST-RIAM1-176 (N-terminal fragment of Rap1-GTP interacting adapter molecule) (human) (UniProt Q7Z5R6). The assay is described as follows: pull-down; quantitative: GST-RIAM on Glutathione Sepharose 4B; Rap1B-GDP at 0.05, 0.1, 0.3, 0.5, 0.7 and 1.0 µM; Buffer A; anti-Rap1 Western blot, densitometry; both purified.
For assay [2] the target is unchanged. Briefly: pull-down; quantitative: GST-RIAM on Glutathione Sepharose 4B; Rap1B-Gpp(NH)p at 0.05, 0.1, 0.3, 0.5, 0.7 and 1.0 µM; Buffer A; anti-Rap1 Western blot, densitometry, nonlinear regression (GraphPad Prism); both purified. A general note: In western blotting, separated proteins are transferred to a membrane and probed.
In assay [3] the target is GST-RIAM150-261 (RA domain) (human) (UniProt Q7Z5R6). Briefly: condition: only Rap1B loaded with GDP (0.05-1.0 µM); pull-down; quantitative: GST-RIAM on Glutathione Sepharose 4B; Rap1B-GDP at 0.05, 0.1, 0.3, 0.5, 0.7 and 1.0 µM; Buffer A; anti-Rap1 Western blot, densitometry; both purified.
For assay [4], the target named is T1, GST-RIAM150-502 (RA and PH domains) (human, UniProt Q7Z5R6 150-502).
T1 construct: Modified pGEX-4T3 vector with a TEV protease site; also called RA-PH domain pair; source: E. coli BL21 GOLD, purified (Glutathione Sepharose, SEC); not shown: GST, N-terminal, kept
T1 sequence (looked up): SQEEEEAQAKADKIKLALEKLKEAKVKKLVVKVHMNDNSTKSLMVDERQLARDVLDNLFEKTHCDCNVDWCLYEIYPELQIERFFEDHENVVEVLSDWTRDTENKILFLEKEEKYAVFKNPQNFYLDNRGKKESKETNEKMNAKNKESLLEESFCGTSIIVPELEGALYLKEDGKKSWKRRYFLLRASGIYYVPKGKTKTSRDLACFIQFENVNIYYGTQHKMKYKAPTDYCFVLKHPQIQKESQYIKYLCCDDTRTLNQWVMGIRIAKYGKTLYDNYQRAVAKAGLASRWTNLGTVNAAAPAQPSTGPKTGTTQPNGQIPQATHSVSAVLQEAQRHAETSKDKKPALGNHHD
Briefly: pull-down; GST-RIAM constructs on Glutathione Sepharose 4B; soluble 1 µM purified Rap1B-Gpp(NH)p, 1 h; Buffer A (50 mM Tris pH 7.5, 200 mM NaCl, 2 mM MgCl2, 10% glycerol, 1 mM DTT, 1% Triton X-100); anti-Rap1B Western blot; both purified.

For assay [5], the target named is GST-RIAM1-176 (N-terminal fragment of Rap1-GTP interacting adapter molecule) (human) (UniProt Q7Z5R6). The assay is described as above.
Assay [6] addresses GST-RIAM1-261 (N-terminus to the end of the RA domain) (human) (UniProt Q7Z5R6). The assay is described as above.
In assay [7] the target is GST-RIAM1-502 (N-terminus, RA and PH domains) (human) (UniProt Q7Z5R6). The description is as above.
The target of assay [8] is GST-RIAM150-261 (RA domain) (human) (UniProt Q7Z5R6). The description is as above.

These are yes or no findings as the source states them, for the method shown. Some binding calls cover weakened binding; strength is not graded here.

B1: Rap1B (amino acids 1-167) (domain or fragment, UniProt P61224 1-167, looked up)
chain: MREYKLVVLGSGGVGKSALTVQFVQGIFVEKYDPTIEDSYRKQVEVDAQQCMLEILDTAGTEQFTAMRDLYMKNGQGFALVYSITAQSTFNDLQDLREQILRVKDTDDVPMILVGNKCDLEDERVVGKEQGQNLARQWNNCAFLESSAKSKINVNEIFYDLVRQINR
notes: small GTPase Rap1B, amino acids 1-167 (C-terminus excluded); loaded with Gpp(NH)p or GDP before the assay; One molecule for both nucleotide states; Construct pGEX-4T3/Rap1B came from A. Wittinghofer; also called Rap1B-Gpp(NH)p; Rap1B-GTP; source: E. coli BL21 GOLD, purified (Glutathione Sepharose, nucleotide exchange, SEC)
Regarding B1, the binding result in assay [1] was “binds”; in assay [2], “binds”; in assay [3], “no binding”; in assay [4] it was “binds”; in assay [5], “binds”; in assay [6] it was “binds”. Further, the binding result in assay [7] and in assay [8] was “binds” each time.

Values taken from article PMC3327698, “Binding Properties and Stability of the Ras-Association Domain of Rap1-GTP Interacting Adapter Molecule (RIAM)” (PLoS ONE, 2012).
